Patent US8669243B2, “Steroid-derived cyclopamine analogs and methods for using the same in the prevention or treatment of cancer” (The Wistar Institute, priority 2007, dated 2014)
At least one compound was matched to its structure with a doubt left.

Tested on: granule neuron precursors (GNPs) purified from postnatal mouse cerebella
Assay: SHH-induced granule neuron precursor (GNP) proliferation, BrdU incorporation
Type: cell-based
Conditions: 10 μM; SHH 600 ng/ml; FIG. 2
Procedure: Purified GNPs were either not treated (CTR, n=4) or treated with SHH (600 ng/ml (n=4), alone or in combination with cyclopamine (10 μM, n=4), tomatidine (10 μM, n=4), analog 18 (10 μM, n=4) or estrone 15 (10 μM, n=2). BrdU-positive cells were counted with a fluorescent microscope using a 20× objective, wherein at least ten independent fields for each culture condition were counted per culture condition.
It has previously been shown that SHH is a potent mitogen for granule neuron precursors (GNPs) purified from postnatal mouse cerebella (Dahmane & Ruiz I Altaba (1999) Development 126:3089-3200). This well-established system was used to test the instant steroid-derived cyclopamine analogs for their activity in inhibiting this proliferative response of GNPs to SHH. […] GNPs were purified from postnatal day 5 (P5) mouse cerebella, plated on poly-D-lysine in serum-free DMEM-F12 and treated with either SHH alone or SHH plus the analogs. Treatment with SHH and cyclopamine was used as a control for inhibition.
GNPs were purified from postnatal day 5 (P5) mouse cerebella and treated with either SHH alone, or SHH in combination with cyclopamine, analog 33, or analog 37, each used at 5 mM. […] Percentage of brdU positive was determined following counting with a fluorescence microscope using a 20× objective (AXIOSKOP, ZEISS). At least five independent fields for each culture condition were counted. […]

Question: How did the “inhibition of SHH-induced GNP proliferation (BrdU-positive cells)” value turn out when `C[C@]12CC[C@@H]3c4ccc(O)cc4CC[C@H]3[C@@H]1CCC2=O` [estrone] was run?
Answer: did not produce the same effect
